Consider 2 molecules from PMC8617943.

By UniProt entry, the sequences of proteins in these tests, tags left out.
UniProt P10415: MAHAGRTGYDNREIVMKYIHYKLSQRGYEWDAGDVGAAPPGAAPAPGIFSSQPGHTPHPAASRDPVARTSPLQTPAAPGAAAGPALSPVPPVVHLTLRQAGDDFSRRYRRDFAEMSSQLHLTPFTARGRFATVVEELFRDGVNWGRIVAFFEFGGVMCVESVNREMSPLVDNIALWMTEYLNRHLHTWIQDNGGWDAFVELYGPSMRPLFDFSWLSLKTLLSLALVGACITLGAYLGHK

Test in all cases: co-IP; endogenous proteins in Ca Ski whole cell lysates precleared with Protein A/G PLUS-Agarose; IP with anti-Bcl-2 or anti-Beclin 1 monoclonal antibody or control rabbit IgG, 2 h at room temperature, captured on protein A/G agarose, western blot; cells untreated or treated with RCE-4 8 μmol/L for 6, 12 and 24 h, with or without ATG 4B siRNA
A general note: A western blot detects proteins with antibodies after separation by electrophoresis.

Experiment [1] deals with Bcl-2 (human (endogenous in Ca Ski)), P10415. The note with it: remark: other sources report otherwise.
Experiment [2] has as its target Bcl-2 (human (endogenous in Ca Ski)) (UniProt P10415).
Experiment [3] deals with Beclin 1 (human (endogenous in Ca Ski)) (UniProt Q14457).

No constants are given. Whether binding was seen depends on the method and setting. Binding seen in cells or lysates may run through a third protein. Some results given as binding are weak or reduced against the parent protein; the word gives no strength.

B1: ATG 5, Q9H1Y0 1-275 (protein)
chain: MTDDKDVLRDVWFGRIPTCFTLYQDEITEREAEPYYLLLPRVSYLTLVTDKVKKHFQKVMRQEDISEIWFEYEGTPLKWHYPIGLLFDLLASSSALPWNITVHFKSFPEKDLLHCPSKDAIEAHFMSCMKEADALKHKSQVINEMQKKDHKQLWMGLQNDRFDQFWAINRKLMEYPAEENGFRYIPFRIYQTTTERPFIQKLFRPVAADGQLHTLGDLLKEVCPSAIDPEDGEKKNQVMIHGIEPMLETPLQWLSEHLSYPDNFLHISIIPQPTD
B1: in experiment [1], the binding result was “binds”.

B2: ATG 4B (protein, UniProt Q9Y4P1 1-393)
chain: MDAATLTYDTLRFAEFEDFPETSEPVWILGRKYSIFTEKDEILSDVASRLWFTYRKNFPAIGGTGPTSDTGWGCMLRCGQMIFAQALVCRHLGRDWRWTQRKRQPDSYFSVLNAFIDRKDSYYSIHQIAQMGVGEGKSIGQWYGPNTVAQVLKKLAVFDTWSSLAVHIAMDNTVVMEEIRRLCRTSVPCAGATAFPADSDRHCNGFPAGAEVTNRPSPWRPLVLLIPLRLGLTDINEAYVETLKHCFMMPQSLGVIGGKPNSAHYFIGYVGEELIYLDPHTTQPAVEPTDGCFIPDESFHCQHPPCRMSIAELDPSIAVGFFCKTEDDFNDWCQQVKKLSLLGGALPMFELVELQPSHLACPDVLNLSLDSSDVERLERFFDSEDEDFEILSL
As to B2, the binding entry in experiment [2] and in experiment [3] was “binds” throughout.
